These results are taken from article PMC6755095.

The chains behind the UniProt entries cited, without tags or fusion partners.
UniProt P08047: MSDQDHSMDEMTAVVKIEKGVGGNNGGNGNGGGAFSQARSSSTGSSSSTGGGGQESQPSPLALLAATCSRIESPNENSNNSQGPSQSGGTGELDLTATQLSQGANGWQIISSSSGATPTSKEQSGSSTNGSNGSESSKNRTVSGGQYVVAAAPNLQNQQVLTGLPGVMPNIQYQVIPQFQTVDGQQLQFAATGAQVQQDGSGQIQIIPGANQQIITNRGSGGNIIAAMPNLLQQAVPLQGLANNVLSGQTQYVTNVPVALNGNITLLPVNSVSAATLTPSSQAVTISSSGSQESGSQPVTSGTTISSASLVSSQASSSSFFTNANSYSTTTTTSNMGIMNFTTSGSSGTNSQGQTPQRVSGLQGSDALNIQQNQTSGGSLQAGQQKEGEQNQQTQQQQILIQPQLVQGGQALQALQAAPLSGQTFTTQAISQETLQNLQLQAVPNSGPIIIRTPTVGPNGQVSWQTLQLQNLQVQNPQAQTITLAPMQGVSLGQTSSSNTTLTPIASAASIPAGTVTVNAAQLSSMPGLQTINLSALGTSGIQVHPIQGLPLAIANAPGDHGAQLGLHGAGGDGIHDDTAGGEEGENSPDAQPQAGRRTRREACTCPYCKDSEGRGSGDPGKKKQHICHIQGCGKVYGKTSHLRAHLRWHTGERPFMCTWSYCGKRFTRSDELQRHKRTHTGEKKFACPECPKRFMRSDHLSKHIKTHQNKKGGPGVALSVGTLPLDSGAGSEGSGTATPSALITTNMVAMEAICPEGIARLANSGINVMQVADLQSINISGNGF
UniProt Q8N6T7: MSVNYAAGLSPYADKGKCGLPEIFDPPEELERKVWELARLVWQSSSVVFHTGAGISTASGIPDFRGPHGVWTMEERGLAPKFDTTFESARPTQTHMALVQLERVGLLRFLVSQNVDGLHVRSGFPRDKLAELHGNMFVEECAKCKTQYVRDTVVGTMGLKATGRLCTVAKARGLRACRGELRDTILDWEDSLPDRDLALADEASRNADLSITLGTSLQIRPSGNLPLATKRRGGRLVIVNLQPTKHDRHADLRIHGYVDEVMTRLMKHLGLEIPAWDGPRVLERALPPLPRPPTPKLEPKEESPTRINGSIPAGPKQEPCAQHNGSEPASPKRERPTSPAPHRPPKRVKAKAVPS

These are yes or no findings as the source states them, for the method shown. In cells and extracts the contact can be indirect. Some entries that bind do so weakly or less than the wild type.

For the assay, the target named is Sp1 transcription factor (human (endogenous in 293T)) (UniProt P08047). The assay is described as follows: co-IP; 2 ug Sp1-specific antibody or normal rabbit IgG added to 500 ug total protein of 293T lysate, overnight; captured on protein A sepharose; SIRT6 detected by western blotting.

In the case of “SIRT6 (Sirtuin 6) (from UniProt Q8N6T7 1-355)”, the binding result was “binds”.
